# Measurements taken from PubChem BioAssay AID1487 (National Center for Advancing Translational Sciences (NCATS), 2009).
# The other results are listed elsewhere or left out. The main result of the screen is listed elsewhere. These columns were measured beside it and carry no call. Compounds called inactive in the main read-out are mostly missing here. The note in brackets gives the kind of curve behind each potency; many fits are weak.
# Assay: qHTS Assay for Modulators of Lamin A Splicing
# Conditions: HeLa LMNA splicing GFP/RFP minigene ratio, 48 h
# Summary of the method: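 S3 HeLa stable clones carrying a lamin A-EGFP splicing minigene plus DsRed2 were seeded at 600 cells/well in Opti-MEM with 2% FBS, pin-dosed and incubated 48 h at 37°C. Acumen cytometry (488 nm) gave the GFP/RFP total-intensity ratio.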
# [1] = measured here: GFP splicing reporter channel
# [2] = measured here: RFP viability control channel
SMILES,AC50 [1],AC50 [2]
Cc1ccc2c(c1)C(O)(c1c(C)[nH]c3ccccc13)C(=O)N2 (stereo not given),"0.708 µM [rising, full curve, poor fit]","11.2 µM [rising, partial curve]"
CC1(Cn2ccnn2)[C@H](C(=O)O)N2C(=O)C[C@H]2S1(=O)=O (stereo not given in full),"0.282 µM [rising, partial curve, poor fit]",–
COc1ccc(CCn2c(C)cc(C(=O)CSc3nnc(N)s3)c2C)cc1,"11.2 µM [rising, partial curve, poor fit]","22.4 µM [rising, single point]"
CCc1ccc(N2C(=O)CN(Cc3cc(OC)c(OC)c(OC)c3)C2=S)cc1,"14.1 µM [rising, single point]","15.8 µM [rising, partial curve]"
CN1C(=O)C2(N=c3ccccc3=N2)c2ccccc21,–,"17.8 µM [rising, partial curve]"
Cc1ccccc1NC1=C(C(=O)c2ccccc2)N(C)S(=O)(=O)c2ccccc21,"35.5 µM [rising, single point]",–
CCCCCCCC#Cc1ccccc1/C=N/S(=O)c1ccc(C)cc1 (stereo not given),"14.1 µM [rising, partial curve, poor fit]",–
Cc1ccc(C)c(NC(=S)N2CCCCC2CO)c1 (stereo not given),–,"2.82 µM [rising, partial curve, poor fit]"
Cc1cc(/C=C2/NC(=O)N(c3ccccc3)C2=O)c(C)n1C(C)C,–,"35.5 µM [rising, single point]"
C=C(C)Cn1c(SCC(=O)N/N=C/c2c(O)ccc3ccccc23)nc2ccccc2c1=O,–,"5.62 µM [rising, single point]"
COc1cc2c(cc1OC)C(c1ccc(-c3ccc(Cl)cc3Cl)o1)=NCC2,"14.1 µM [falling, single point]",–
COC(=O)c1ccccc1NC(=O)c1ccc2nc(CCc3ccccc3)oc2c1,–,"10 µM [rising, partial curve]"
CN(C)c1ccc(/C=C(/C(=O)c2ccc(Cl)cc2Cl)n2cncn2)cc1,–,"17.8 µM [rising, single point]"
COc1cccc(Cn2c(=O)c(-c3ccc(F)cc3)nc3cnc(OC)nc32)c1,"25.1 µM [falling, partial curve]","28.2 µM [falling, single point]"
Cc1ccc(N=Cc2c(O)ccc3ccccc23)cc1F,–,"35.5 µM [rising, single point]"
CC(=O)N(c1ccccc1C)C1CCCC1,–,"0.112 µM [rising, single point]"
Cc1cccc(NC(=S)NCCC(c2ccccc2)c2ccccc2)c1,"8.91 µM [rising, partial curve]","25.1 µM [rising, partial curve]"
Cc1cc(C)cc(N(CCC#N)C(=O)CSC2=Nc3ccccc3C3CC=NN23)c1 (stereo not given),"14.1 µM [falling, partial curve, poor fit]","35.5 µM [falling, partial curve]"
Cn1nc(C(F)(F)F)c2cc(NC(=O)OCc3ccc(F)cc3)sc21,–,"20 µM [rising, single point]"
O=C(Nc1ccccc1F)Nc1cc(S(=O)(=O)N2CCOCC2)ccc1N1CCCC1,"0.316 µM [rising, full curve, poor fit]","1 µM [rising, partial curve]"
C=CCn1c(=O)c(C(=O)NCCc2ccccc2)c(O)c2ccccc21,–,"35.5 µM [rising, single point]"
Cc1ccc(-c2cc3nc(-c4ccc(Br)cc4)cc(N)n3n2)cc1,–,"17.8 µM [rising, single point]"
CC(=O)Nc1c(Nc2ccccc2)c2ccccc2oc1=O,"0.282 µM [rising, partial curve, poor fit]",–
Cc1ccc(Cl)cc1NC(=O)CSc1nc2ccccc2nc1Cc1ccccc1,"0.794 µM [rising, full curve, poor fit]","1.12 µM [rising, full curve]"
O=C(NCCc1csc(-c2cccnc2)n1)c1cccc2ccccc12,–,"4.47 µM [rising, partial curve, poor fit]"
Cc1ccc(S(=O)(=O)N2CCC(=O)N(CCOC(=O)Nc3cc(C)cc(C)c3)CC2)cc1,–,"22.4 µM [rising, single point]"
COc1ccc(NC(=S)SC)cc1OC,"10 µM [rising, single point]",–
Cc1cc(C)n(-c2cc(N3CCN(S(=O)(=O)c4ccc(Br)cc4)CC3)ccc2[N+](=O)[O-])n1,"12.6 µM [rising, partial curve, poor fit]","35.5 µM [rising, partial curve]"

SMILES,AC50 [1],AC50 [2]
O=C(CN(c1cccc(C(F)(F)F)c1)S(=O)(=O)c1ccc(Cl)c([N+](=O)[O-])c1)NCc1ccccc1Cl,"11.2 µM [falling, partial curve, poor fit]","12.6 µM [falling, single point]"
Cc1ccc(N/C=C/C(=O)C(C)(C)C)c(O)c1,–,"15.8 µM [rising, single point]"
CC(/C=N/NC(=O)c1cc(C(C)C)[nH]n1)=C\c1ccccc1,–,"12.6 µM [rising, single point]"
CCCCCc1nc2sc3c(c2c(=O)n1NC(=O)c1ccc([N+](=O)[O-])cc1)CC(C)(C)OC3,–,"5.01 µM [rising, partial curve]"
COc1cc(/C=N/NC(=O)c2cc(-c3ccccc3OC(C)C)nc3ccccc23)ccc1O,"11.2 µM [rising, partial curve]","8.91 µM [rising, partial curve]"
Cn1c(/C(C#N)=C/c2ccc(-c3ccc(S(N)(=O)=O)cc3)o2)nc2ccccc21,"25.1 µM [falling, single point]","11.2 µM [falling, partial curve, poor fit]"
COc1cc(/C=N/OCC(=O)NC2CCS(=O)(=O)C2)ccc1OC(F)F (stereo not given),–,"39.8 µM [falling, partial curve, poor fit]"
OC(CNCC(c1ccc(Cl)cc1Cl)c1c[nH]c2ccccc12)c1ccccc1 (stereo not given),"2 µM [falling, partial curve]","2.82 µM [falling, partial curve]"
N#Cc1cc2c(nc1SCc1cccnc1)CCCCC2,"12.6 µM [rising, single point]","31.6 µM [rising, single point]"
CCOC(=O)N1CCC(NC(=O)c2cc3cc4cc(OC)ccc4nc3o2)CC1,–,"22.4 µM [rising, single point]"
O=C(NC1CC(=O)N(c2cccc(F)c2)C1)c1cc2ccccc2o1 (stereo not given),–,"0.00891 µM [falling, full curve, poor fit]"
O=C(Nc1ccccc1C(F)(F)F)N1CCC(CN2CCc3ccccc3C2)CC1,"0.02 µM [rising, full curve, poor fit]",–
Cc1cc(C)cc(-n2c(SCC(N)=O)nc3c([nH]c4ccccc43)c2=O)c1,"39.8 µM [falling, partial curve, poor fit]",–
CCOc1ccccc1NC(=O)N1CCC(n2nnc3cc(C)ccc32)CC1,–,"0.447 µM [rising, full curve, poor fit]"
COc1ccc(OCC(=O)NNc2c3ccccc3nc3ccccc23)cc1,"35.5 µM [falling, single point]","35.5 µM [falling, single point]"
CCCCN1C(=O)c2ccc(C(=O)NCCN3C(=O)S/C(=C\c4cccnc4)C3=O)cc2C1=O,"8.91 µM [rising, partial curve]","7.94 µM [rising, partial curve]"
Cc1cccc(NS(=O)(=O)c2ccc(C3CCCCC3)cc2)c1,"1.58 µM [rising, partial curve]","3.98 µM [rising, partial curve]"
COc1ccc(Nc2ncnc3c2cnn3-c2ccc(C)cc2)cc1Cl,"0.0158 µM [rising, full curve, poor fit]","14.1 µM [rising, partial curve, poor fit]"
Cc1ccccc1CSc1nc2ccsc2c(=O)n1CCC(C)C,–,"20 µM [rising, single point]"
O=C(O)c1ccc(NS(=O)(=O)c2ccc3c(c2)OCCCO3)cc1,"0.0398 µM [rising, full curve, poor fit]",–
COc1cccc(CNCc2cccnc2)c1OCc1ccccc1,–,"35.5 µM [falling, single point]"
Cc1ccc(CNC(=O)c2ccc(CSCc3cccc(C)c3)o2)cc1,–,"11.2 µM [rising, single point]"
CCC(C(=O)NC1CCCC1)N(Cc1ccco1)C(=O)Cn1nnc(-c2ccc(C)cc2)n1 (stereo not given),"14.1 µM [rising, single point]","22.4 µM [rising, single point]"
Cc1cccc(N(CC(=O)Nc2ccccc2F)S(C)(=O)=O)c1,–,"1.41 µM [falling, full curve, poor fit]"
O=C(/C=C/c1ccccc1)NCC(=O)N/N=C\c1cccnc1,–,"0.00891 µM [falling, full curve, poor fit]"
O=C(Nc1ccc(-n2nncc2-c2ccco2)cc1)c1cc2ccccc2oc1=O,"20 µM [falling, single point]","35.5 µM [falling, single point]"
Cc1cc(C)cc(-n2c(SCC(=O)N3CCOCC3)nc3c([nH]c4ccccc43)c2=O)c1,"0.02 µM [rising, full curve, poor fit]",–

# Random excerpt: two entries already listed, in no set order.
SMILES,AC50 [1],AC50 [2]
Cc1ccc(N/C=C/C(=O)C(C)(C)C)c(O)c1,–,"15.8 µM [rising, single point]"
Cn1c(/C(C#N)=C/c2ccc(-c3ccc(S(N)(=O)=O)cc3)o2)nc2ccccc21,"25.1 µM [falling, single point]","11.2 µM [falling, partial curve, poor fit]"
